According to patent US11393988B2, “Metal complexes” (Merck Patent GmbH, priority 2014, dated 2022):

Assay: Vacuum-processed OLEDs with the complexes as phosphorescent emitter (efficiency, voltage, colour, lifetime)
Conditions: for LT80 (h) 1000 cd/m^2: orange-red, yellow and green OLEDs, time to 80% of initial luminous density 1000 cd/m^2; for Voltage (V) 1000 cd/m^2 / EQE (%) 1000 cd/m^2: vacuum-processed OLED, at 1000 cd/m^2; for EQE (%) 1000 cd/m^2: complex as emitter in EML (structure per Table 1)

SMILES | LT80 (h) 1000 cd/m^2 [h] | Voltage (V) 1000 cd/m^2 [V] | EQE (%) 1000 cd/m^2 [%]
CC1(C)CCC(C)(C)c2c[c]([Ir]([c]3ccccc3-c3ccccn3)[c]3ccccc3-c3ccccn3)c(-c3ccc(-c4ccccc4)cn3)cc21 [Ir501] | 27000 | 3.1 | 24.0
CC(C)(C)c1ccc(-c2cc3c(c[c]2[Ir]([c]2ccccc2-c2ccccn2)[c]2ccccc2-c2ccccn2)C(C)(C)CCC3(C)C)nc1 [Ir502] | 20000 | 3.2 | 23.9
CC1(C)CCC(C)(C)c2c[c]([Ir]([c]3ccccc3-c3ccccn3)[c]3ccccc3-c3ccccn3)c(-c3cc(-c4ccccc4)ccn3)cc21 [Ir505] | 41000 | 2.9 | 23.9
Cc1cccnc1-c1cc2c(c[c]1[Ir]([c]1ccccc1-c1ccccn1)[c]1ccccc1-c1ccccn1)C(C)(C)CCC2(C)C [Ir506] | 20000 | 3.1 | 24.0
CC(C)(C)c1cnc(-c2cc3c(c[c]2[Ir]([c]2ccccc2-c2ccccn2)[c]2ccccc2-c2ccccn2)C(C)(C)CCC3(C)C)cn1 [Ir507] | 20000 | 3.2 | 22.8
CC1(C)CCC(C)(C)c2c[c]([Ir]([c]3ccccc3-c3ccccn3)[c]3ccccc3-c3ccccn3)c(-c3cc4ccccc4cn3)cc21 [Ir508] | – | 3.0 | 22.6
Cc1ccc2nc(-c3cc4c(c[c]3[Ir]([c]3ccccc3-c3ccccn3)[c]3ccccc3-c3ccccn3)C(C)(C)CCC4(C)C)c(C)cc2c1 [Ir509] | 23000 | 3.1 | 19.5
CC1(C)CCC(C)(C)c2cc3nc(-c4cccc[c]4[Ir]([c]4ccccc4-c4ccccn4)[c]4ccccc4-c4ccccn4)cnc3cc21 [Ir516] | – | 3.1 | 17.1
Cc1nc2cc3c(cc2nc1-c1cccc[c]1[Ir]([c]1ccccc1-c1ccccn1)[c]1ccccc1-c1ccccn1)C(C)(C)CCC3(C)C [Ir517] | 11000 | 3.2 | 17.4
CC1(C)CCC(C)(C)c2cc3c(-c4cccc[c]4[Ir]([c]4ccccc4-c4ccccn4)[c]4ccccc4-c4ccccn4)nccc3cc21 [Ir520] | 18000 | 3.1 | 17.2
CC(C)(C)c1ccc(-c2nccc3cc4c(cc23)C(C)(C)CCC4(C)C)[c]([Ir]([c]2ccccc2-c2ccccn2)[c]2ccccc2-c2ccccn2)c1 [Ir521] | 18000 | 3.1 | 17.8
CC1(C)CCC(C)(C)c2c[c]([Ir]([c]3ccccc3-c3ccccn3)[c]3ccccc3-c3ccccn3)c(-c3nccc4cc5c(cc34)C(C)(C)CCC5(C)C)cc21 [Ir522] | 20000 | 3.1 | 18.2
CC1(C)CCC(C)(C)c2cc3cc(-c4cccc[c]4[Ir]([c]4ccccc4-c4ccccn4)[c]4ccccc4-c4ccccn4)ncc3cc21 [Ir524] | 21000 | 3.0 | 19.3
CC1(C)CCC(C)(C)c2cc(-c3cc4c(c[c]3[Ir]([c]3ccccc3-c3ccccn3)[c]3ccccc3-c3ccccn3)C(C)(C)CCC4(C)C)ncc21 [Ir529] | 25000 | 3.2 | 24.3
Cc1cccnc1-c1cccc[c]1[Ir]([c]1cc2c(cc1-c1cc(-c3ccccc3)ccn1)C(C)(C)CCC2(C)C)[c]1cc2c(cc1-c1cc(-c3ccccc3)ccn1)C(C)(C)CCC2(C)C [Ir537] | 40000 | 2.9 | 22.1
Cc1cccnc1-c1cccc[c]1[Ir]([c]1cc2c(cc1-c1ncccc1C)C(C)(C)CCC2(C)C)[c]1cc2c(cc1-c1ncccc1C)C(C)(C)CCC2(C)C [Ir538] | 24000 | 3.2 | 24.0
CC1(C)CCC(C)(C)c2c[c]([Ir]([c]3ccc(-c4ccccc4)cc3-c3ccccn3)[c]3cc4c(cc3-c3cc5ccccc5cn3)C(C)(C)CCC4(C)C)c(-c3cc4ccccc4cn3)cc21 [Ir539] | – | 3.1 | 19.5

SMILES | LT80 (h) 1000 cd/m^2 [h] | Voltage (V) 1000 cd/m^2 [V] | EQE (%) 1000 cd/m^2 [%]
CC1(C)CCC(C)(C)c2c[c]([Ir]([c]3cc4c(cc3-c3cc5c(cn3)C(C)(C)CC5(C)C)C(C)(C)CCC4(C)C)[c]3cc4c(cc3-c3cc5c(cn3)C(C)(C)CC5(C)C)C(C)(C)CCC4(C)C)c(-c3ccccn3)cc21 [Ir543] | 25000 | 3.3 | 24.3
CC1(C)CCC(C)(C)c2cc3c(-c4cccc[c]4[Ir]([c]4ccccc4-c4ccccn4)[c]4ccccc4-c4nccc5cc6c(cc45)C(C)(C)CCC6(C)C)nccc3cc21 [Ir547] | 20000 | 3.0 | 18.9
CC(C)(C)c1ccc(-c2nccc3cc4c(cc23)C(C)(C)CCC4(C)C)[c]([Ir]([c]2ccccc2-c2cc3ccccc3cn2)[c]2cc(C(C)(C)C)ccc2-c2nccc3cc4c(cc23)C(C)(C)CCC4(C)C)c1 [Ir548] | 22000 | 3.0 | 19.5
CC1(C)CCC(C)(C)c2cc3cc(-c4cccc[c]4[Ir]([c]4ccccc4-c4ccccn4)[c]4ccccc4-c4cc5cc6c(cc5cn4)C(C)(C)CCC6(C)C)ncc3cc21 [Ir554] | 19000 | 3.0 | 19.688
CC(C)(C)c1ccc2[n+](c1)[Ir-3]13([c]4cc5c(cc4-2)C(C)(C)CCC5(C)C)([c]2cc4c(cc2-c2ccc(C(C)(C)C)c[n+]21)C(C)(C)CCC4(C)C)[c]1cc2c(cc1-c1ccc(C(C)(C)C)c[n+]13)C(C)(C)CCC2(C)C [Ir(LH3)3] | 20000 | 3.3 | 24.1
Cc1cccc2c1ccc1[n+]2[Ir-3]23([c]4cc5c(cc4-1)C(C)(C)CCC5(C)C)([c]1cc4c(cc1-c1ccc5c(C)cccc5[n+]12)C(C)(C)CCC4(C)C)[c]1cc2c(cc1-c1ccc4c(C)cccc4[n+]13)C(C)(C)CCC2(C)C [Ir(LH4)3] | – | 3.1 | 18.5
CC(C)(C)c1c[n+]2c(cn1)-c1cc3c(c[c]1[Ir-3]214([c]2cc5c(cc2-c2cnc(C(C)(C)C)c[n+]21)C(C)(C)CCC5(C)C)[c]1cc2c(cc1-c1cnc(C(C)(C)C)c[n+]14)C(C)(C)CCC2(C)C)C(C)(C)CCC3(C)C [Ir(LH8)3] | – | 3.0 | 21.3
CC1(C)CCC(C)(C)c2c[c]3c(cc21)-c1cc2ccccc2c[n+]1[Ir-3]312([c]3cc4c(cc3-c3cc5ccccc5c[n+]31)C(C)(C)CCC4(C)C)[c]1cc3c(cc1-c1cc4ccccc4c[n+]12)C(C)(C)CCC3(C)C [Ir(LH9)3] | 17000 | 3.0 | 19.6
Cc1ccc2c(c1)cc(C)c1[n+]2[Ir-3]23([c]4cc5c(cc4-1)C(C)(C)CCC5(C)C)([c]1cc4c(cc1-c1c(C)cc5cc(C)ccc5[n+]12)C(C)(C)CCC4(C)C)[c]1cc2c(cc1-c1c(C)cc4cc(C)ccc4[n+]13)C(C)(C)CCC2(C)C [Ir(LH10)3] | – | 3.1 | 18.9
CC1(C)CCC(C)(C)c2c[c]3c(cc21)-c1cc2c(c[n+]1[Ir-3]314([c]3cc5c(cc3-c3cc6c(c[n+]31)C(C)(C)CC6(C)C)C(C)(C)CCC5(C)C)[c]1cc3c(cc1-c1cc5c(c[n+]14)C(C)(C)CC5(C)C)C(C)(C)CCC3(C)C)C(C)(C)CC2(C)C [Ir(LH16)3] | 24000 | 3.3 | 24.3
CC1(C)CCC(C)(C)c2cc3c4[n+](ccc3cc21)[Ir-3]12([c]3ccccc3-4)([c]3ccccc3-c3c4cc5c(cc4cc[n+]31)C(C)(C)CCC5(C)C)[c]1ccccc1-c1c3cc4c(cc3cc[n+]12)C(C)(C)CCC4(C)C [Ir(LH26)3] | 19000 | 3.0 | 18.5
CC(C)(C)c1ccc2[c](c1)[Ir-3]13([c]4cc(C(C)(C)C)ccc4-c4c5cc6c(cc5cc[n+]41)C(C)(C)CCC6(C)C)([c]1cc(C(C)(C)C)ccc1-c1c4cc5c(cc4cc[n+]13)C(C)(C)CCC5(C)C)[n+]1ccc3cc4c(cc3c1-2)C(C)(C)CCC4(C)C [Ir(LH27)3] | 18000 | 3.0 | 18.4
CC1(C)CCC(C)(C)c2cc3c4[n+](ccc3cc21)[Ir-3]12([c]3cc5c(cc3-4)C(C)(C)CC5(C)C)([c]3cc4c(cc3-c3c5cc6c(cc5cc[n+]31)C(C)(C)CCC6(C)C)C(C)(C)CC4(C)C)[c]1cc3c(cc1-c1c4cc5c(cc4cc[n+]12)C(C)(C)CCC5(C)C)C(C)(C)CC3(C)C [Ir(LH32)3] | 18000 | 3.2 | 18.9
CC1(C)CCC(C)(C)c2cc3c[n+]4c(cc3cc21)-c1cccc[c]1[Ir-3]412([c]3ccccc3-c3cc4cc5c(cc4c[n+]31)C(C)(C)CCC5(C)C)[c]1ccccc1-c1cc3cc4c(cc3c[n+]12)C(C)(C)CCC4(C)C [Ir(LH33)3] | 14000 | 3.1 | 19.2
CC1(C)CCC(C)(C)c2cc(-c3cccc[c]3[Ir]([c]3ccccc3-c3cc4c(cn3)C(C)(C)CCC4(C)C)[c]3ccccc3-c3cc4c(cn3)C(C)(C)CCC4(C)C)ncc21 [Ir(LH35)3] | 22000 | 3.2 | 22.8
[2H]c1c([2H])c([2H])[c]([Ir]([c]2c([2H])c([2H])c([2H])c([2H])c2-c2cc3c(cn2)C(C)(C)CCC3(C)C)[c]2c([2H])c([2H])c([2H])c([2H])c2-c2cc3c(cn2)C(C)(C)CCC3(C)C)c(-c2cc3c(cn2)C(C)(C)CCC3(C)C)c1[2H] [Ir(LH36)3] | 25000 | 3.2 | 23.4
